Laboratory results as given in the supplement of paper PMC10849652.
The list shows a part of the results.

Amino acid sequences for entries named in this document (tags omitted). A change or cut given only in a name is not applied to a line headed by its entry.
UniProt P61289: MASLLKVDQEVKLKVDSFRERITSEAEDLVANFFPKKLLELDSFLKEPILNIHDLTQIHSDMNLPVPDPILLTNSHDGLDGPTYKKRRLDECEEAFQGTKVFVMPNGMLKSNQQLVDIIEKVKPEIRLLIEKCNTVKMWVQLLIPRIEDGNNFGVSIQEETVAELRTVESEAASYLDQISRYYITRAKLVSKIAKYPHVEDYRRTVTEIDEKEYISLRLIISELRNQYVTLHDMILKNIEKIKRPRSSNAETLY
UniProt Q06323: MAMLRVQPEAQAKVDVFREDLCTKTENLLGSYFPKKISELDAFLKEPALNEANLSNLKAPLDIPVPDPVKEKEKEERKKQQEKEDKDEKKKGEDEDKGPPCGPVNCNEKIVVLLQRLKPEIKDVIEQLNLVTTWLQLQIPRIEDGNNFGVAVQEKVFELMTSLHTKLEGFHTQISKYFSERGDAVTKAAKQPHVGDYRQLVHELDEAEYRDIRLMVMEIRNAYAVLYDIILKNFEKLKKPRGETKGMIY
UniProt Q96QR8: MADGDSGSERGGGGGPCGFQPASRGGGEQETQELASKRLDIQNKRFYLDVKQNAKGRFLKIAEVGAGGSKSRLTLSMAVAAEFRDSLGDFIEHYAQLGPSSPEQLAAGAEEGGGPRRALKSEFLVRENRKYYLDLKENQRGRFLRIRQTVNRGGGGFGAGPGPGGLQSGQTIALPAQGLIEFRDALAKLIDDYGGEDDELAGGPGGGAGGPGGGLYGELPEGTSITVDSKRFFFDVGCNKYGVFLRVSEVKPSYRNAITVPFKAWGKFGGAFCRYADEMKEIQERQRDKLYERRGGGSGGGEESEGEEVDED
UniProt Q99952: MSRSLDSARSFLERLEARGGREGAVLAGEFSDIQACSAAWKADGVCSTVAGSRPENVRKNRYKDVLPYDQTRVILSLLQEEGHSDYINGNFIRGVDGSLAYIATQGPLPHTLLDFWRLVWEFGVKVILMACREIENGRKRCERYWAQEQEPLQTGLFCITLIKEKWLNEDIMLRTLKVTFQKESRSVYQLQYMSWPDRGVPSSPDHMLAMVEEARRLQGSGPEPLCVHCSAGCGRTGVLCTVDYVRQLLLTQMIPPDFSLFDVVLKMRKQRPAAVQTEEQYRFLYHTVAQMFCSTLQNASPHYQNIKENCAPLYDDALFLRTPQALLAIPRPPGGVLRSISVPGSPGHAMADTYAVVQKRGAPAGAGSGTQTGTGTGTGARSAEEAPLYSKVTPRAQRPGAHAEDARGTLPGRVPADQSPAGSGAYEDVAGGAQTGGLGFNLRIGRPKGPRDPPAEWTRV
UniProt Q15032: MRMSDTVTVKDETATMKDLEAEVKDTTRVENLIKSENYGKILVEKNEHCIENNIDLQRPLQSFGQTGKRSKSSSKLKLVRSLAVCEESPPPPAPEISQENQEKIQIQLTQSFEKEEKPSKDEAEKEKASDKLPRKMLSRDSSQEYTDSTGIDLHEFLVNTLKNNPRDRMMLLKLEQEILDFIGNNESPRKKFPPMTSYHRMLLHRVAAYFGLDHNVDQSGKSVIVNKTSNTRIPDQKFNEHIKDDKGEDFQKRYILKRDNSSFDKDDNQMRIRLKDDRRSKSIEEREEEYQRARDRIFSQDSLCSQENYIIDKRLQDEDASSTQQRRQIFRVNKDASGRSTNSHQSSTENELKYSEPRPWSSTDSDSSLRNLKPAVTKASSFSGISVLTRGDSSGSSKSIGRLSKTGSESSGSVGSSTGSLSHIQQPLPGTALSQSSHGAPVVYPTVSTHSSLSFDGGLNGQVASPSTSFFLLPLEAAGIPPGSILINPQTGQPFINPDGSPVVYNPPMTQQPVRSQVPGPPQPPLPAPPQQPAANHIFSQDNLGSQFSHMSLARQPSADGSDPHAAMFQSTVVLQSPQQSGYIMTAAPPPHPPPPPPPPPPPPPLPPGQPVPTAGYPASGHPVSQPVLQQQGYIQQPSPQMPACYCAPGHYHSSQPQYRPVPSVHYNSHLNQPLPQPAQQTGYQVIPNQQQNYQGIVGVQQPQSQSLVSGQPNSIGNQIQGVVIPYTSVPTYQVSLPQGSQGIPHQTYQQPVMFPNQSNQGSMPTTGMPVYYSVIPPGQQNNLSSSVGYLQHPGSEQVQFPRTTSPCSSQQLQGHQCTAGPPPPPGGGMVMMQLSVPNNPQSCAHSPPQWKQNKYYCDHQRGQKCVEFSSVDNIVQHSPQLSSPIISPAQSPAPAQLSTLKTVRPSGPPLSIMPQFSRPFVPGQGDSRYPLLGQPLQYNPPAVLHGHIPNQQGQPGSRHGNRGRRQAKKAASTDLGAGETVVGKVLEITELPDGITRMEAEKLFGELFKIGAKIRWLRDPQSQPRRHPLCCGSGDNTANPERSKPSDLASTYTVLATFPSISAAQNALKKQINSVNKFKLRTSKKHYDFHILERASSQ
UniProt Q96PZ0: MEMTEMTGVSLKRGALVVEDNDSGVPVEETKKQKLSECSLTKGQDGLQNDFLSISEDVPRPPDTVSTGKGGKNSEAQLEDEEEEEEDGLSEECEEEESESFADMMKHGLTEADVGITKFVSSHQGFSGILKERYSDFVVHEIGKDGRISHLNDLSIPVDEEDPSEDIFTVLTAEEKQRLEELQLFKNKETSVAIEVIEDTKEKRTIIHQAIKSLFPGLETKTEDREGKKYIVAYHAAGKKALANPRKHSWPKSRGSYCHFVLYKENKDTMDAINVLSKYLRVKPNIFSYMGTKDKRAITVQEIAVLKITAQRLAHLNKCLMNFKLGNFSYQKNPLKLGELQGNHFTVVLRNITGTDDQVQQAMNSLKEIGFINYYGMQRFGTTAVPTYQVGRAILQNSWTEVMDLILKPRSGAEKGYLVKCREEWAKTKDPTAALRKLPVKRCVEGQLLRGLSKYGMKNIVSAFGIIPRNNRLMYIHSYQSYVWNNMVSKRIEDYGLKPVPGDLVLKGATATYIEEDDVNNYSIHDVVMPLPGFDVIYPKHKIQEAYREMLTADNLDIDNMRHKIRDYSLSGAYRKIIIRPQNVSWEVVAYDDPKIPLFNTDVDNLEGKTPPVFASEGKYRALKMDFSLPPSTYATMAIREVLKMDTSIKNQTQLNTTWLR
UniProt Q9ULZ3, whole entry, looked up: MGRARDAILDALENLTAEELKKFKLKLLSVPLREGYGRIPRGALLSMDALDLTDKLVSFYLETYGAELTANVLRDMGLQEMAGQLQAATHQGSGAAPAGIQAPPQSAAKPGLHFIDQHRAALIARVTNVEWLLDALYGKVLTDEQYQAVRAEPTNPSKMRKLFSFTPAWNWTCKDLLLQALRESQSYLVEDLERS
UniProt Q6PGN9: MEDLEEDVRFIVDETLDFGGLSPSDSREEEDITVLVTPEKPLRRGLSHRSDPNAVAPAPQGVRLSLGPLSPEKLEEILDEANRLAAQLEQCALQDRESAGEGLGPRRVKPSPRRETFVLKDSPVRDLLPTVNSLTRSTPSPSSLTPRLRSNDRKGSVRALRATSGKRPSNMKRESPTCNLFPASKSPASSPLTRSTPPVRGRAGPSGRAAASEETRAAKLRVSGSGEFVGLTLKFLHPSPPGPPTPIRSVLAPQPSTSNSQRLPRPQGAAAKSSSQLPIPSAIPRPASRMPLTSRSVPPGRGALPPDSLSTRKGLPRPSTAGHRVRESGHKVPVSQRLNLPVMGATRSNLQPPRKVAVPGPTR

Compound: c1cn2cc(-c3ccc4cn[nH]c4c3)nc(Nc3ccc(N4CCOCC4)cc3)c2n1 [entospletinib]
Assay: log2 fold change, soluble protein after heating vs DMSO (PISA); higher = thermal stabilisation; K562 cells, 10 uM, 30 min; active = over 0.2 and 3.5 SD of the protein, either way, in both replicates (recomputed)
Summary of the method: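 Quantification of soluble protein used TMTpro 16plex LC-MS/MS, with channel sums equalised. Samples were the supernatant after 21,000xg for 90 min of pooled aliquots from K562 cells (2×10^6 cells/mL) treated with 10 μM compound for 30 min, heated for 3 min over 48°C-58°C, and extracted in PBS with 0.5% NP-40 at 4°C. Values, from duplicates, describe thermal stability against control samples on a log2 fold-change scale.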

log2 fold change, inactive:
PSME3 isoform 2 (UniProt P61289) 0.011
PSME1 (UniProt Q06323) 0.008
PURB (UniProt Q96QR8) 0.191
PTPN18 (UniProt Q99952) 0.001
R3HDM1 isoform 2 (UniProt Q15032) -0.165
PUS7 isoform 2 (UniProt Q96PZ0) 0.041
PYCARD (UniProt Q9ULZ3) 0.017
PSRC1 (UniProt Q6PGN9) 0.05

Copied from the listing (two entries):
log2 fold change, inactive:
PUS7 isoform 2 (UniProt Q96PZ0) 0.041
PYCARD (UniProt Q9ULZ3) 0.017
